The results in this text go back to publication PMC8273881.

Protein sequences, listed by entry. Tags and fused reporters are not part of them. Lines headed by an entry give the natural chain unless they say otherwise; changes in a name come on top. Residues count along the entry.
UniProt Q9Y266: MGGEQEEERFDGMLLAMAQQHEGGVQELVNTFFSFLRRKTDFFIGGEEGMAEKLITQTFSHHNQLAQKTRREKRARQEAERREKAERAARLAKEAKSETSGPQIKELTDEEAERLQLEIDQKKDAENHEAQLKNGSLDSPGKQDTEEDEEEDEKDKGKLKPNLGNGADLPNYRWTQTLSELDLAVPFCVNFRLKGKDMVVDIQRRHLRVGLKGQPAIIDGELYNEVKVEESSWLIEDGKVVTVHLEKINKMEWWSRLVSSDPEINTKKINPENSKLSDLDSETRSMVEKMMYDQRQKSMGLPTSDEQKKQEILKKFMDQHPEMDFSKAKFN
UniProt P21333: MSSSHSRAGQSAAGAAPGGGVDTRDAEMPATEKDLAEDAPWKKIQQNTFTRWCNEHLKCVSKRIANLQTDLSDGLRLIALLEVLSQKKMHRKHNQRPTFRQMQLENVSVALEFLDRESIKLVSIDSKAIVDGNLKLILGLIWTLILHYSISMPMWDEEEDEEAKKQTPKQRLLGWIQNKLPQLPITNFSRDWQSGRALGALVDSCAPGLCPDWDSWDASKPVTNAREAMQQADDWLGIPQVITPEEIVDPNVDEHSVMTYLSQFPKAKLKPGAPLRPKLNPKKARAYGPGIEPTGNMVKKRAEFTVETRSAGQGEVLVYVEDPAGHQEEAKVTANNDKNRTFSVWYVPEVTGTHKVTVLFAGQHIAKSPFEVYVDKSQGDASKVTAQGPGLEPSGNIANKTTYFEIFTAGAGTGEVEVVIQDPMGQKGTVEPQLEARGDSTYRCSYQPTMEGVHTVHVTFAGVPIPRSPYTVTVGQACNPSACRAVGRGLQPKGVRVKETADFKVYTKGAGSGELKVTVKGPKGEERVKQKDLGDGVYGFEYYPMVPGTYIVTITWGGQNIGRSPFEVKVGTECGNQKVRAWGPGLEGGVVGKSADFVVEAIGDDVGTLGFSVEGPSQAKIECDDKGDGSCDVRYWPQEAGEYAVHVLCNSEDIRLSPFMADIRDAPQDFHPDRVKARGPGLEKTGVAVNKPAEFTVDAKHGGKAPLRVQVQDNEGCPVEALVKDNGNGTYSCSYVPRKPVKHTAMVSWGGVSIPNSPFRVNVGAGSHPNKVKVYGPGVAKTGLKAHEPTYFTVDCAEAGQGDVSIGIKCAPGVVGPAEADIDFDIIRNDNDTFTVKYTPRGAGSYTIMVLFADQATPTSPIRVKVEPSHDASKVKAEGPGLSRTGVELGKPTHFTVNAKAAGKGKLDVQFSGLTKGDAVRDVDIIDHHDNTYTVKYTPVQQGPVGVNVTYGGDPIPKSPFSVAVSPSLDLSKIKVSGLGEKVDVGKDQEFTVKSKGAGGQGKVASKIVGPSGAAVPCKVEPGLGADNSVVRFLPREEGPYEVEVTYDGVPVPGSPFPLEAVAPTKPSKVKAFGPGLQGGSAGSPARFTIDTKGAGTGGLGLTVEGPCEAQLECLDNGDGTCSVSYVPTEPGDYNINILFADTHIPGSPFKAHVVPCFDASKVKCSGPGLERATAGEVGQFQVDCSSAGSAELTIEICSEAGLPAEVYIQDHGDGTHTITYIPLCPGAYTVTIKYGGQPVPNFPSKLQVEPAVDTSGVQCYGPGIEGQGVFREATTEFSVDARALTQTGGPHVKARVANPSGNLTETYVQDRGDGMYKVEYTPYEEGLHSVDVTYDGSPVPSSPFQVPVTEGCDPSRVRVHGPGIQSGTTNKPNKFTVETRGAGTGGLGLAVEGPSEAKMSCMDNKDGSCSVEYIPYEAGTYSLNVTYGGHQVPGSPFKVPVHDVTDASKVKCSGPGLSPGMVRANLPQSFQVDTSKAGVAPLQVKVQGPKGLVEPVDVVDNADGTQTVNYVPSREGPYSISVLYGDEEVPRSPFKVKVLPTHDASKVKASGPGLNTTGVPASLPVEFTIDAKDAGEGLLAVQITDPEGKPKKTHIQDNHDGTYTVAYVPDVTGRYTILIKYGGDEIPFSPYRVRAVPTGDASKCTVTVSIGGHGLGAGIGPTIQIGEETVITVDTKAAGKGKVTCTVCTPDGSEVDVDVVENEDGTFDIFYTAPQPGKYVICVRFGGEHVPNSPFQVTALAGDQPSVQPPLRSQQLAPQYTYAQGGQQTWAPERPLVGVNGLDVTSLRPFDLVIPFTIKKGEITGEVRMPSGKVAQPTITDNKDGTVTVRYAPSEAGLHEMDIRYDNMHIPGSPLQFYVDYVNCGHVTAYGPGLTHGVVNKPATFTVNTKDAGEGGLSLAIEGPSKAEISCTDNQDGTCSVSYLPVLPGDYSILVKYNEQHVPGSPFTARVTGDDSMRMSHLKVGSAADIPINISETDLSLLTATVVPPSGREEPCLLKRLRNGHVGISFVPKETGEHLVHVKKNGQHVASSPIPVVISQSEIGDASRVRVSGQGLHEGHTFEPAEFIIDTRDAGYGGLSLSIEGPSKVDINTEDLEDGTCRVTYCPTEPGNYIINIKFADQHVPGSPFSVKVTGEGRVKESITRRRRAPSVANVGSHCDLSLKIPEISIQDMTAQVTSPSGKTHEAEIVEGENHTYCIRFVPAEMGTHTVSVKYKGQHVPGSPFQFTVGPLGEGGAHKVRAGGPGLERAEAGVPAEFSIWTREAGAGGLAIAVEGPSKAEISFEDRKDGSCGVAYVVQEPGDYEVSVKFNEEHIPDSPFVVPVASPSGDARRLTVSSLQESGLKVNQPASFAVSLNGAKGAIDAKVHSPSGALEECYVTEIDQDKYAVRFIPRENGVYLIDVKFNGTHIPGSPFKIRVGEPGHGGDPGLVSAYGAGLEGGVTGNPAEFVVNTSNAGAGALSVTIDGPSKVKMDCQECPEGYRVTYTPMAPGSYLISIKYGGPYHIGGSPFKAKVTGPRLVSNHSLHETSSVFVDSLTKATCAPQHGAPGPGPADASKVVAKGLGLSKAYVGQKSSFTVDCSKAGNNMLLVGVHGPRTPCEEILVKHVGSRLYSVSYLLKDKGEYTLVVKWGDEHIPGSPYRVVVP
GST-filamin A fragment F7 (repeats 20-23, 2132-2516 aa): residues 2132-2516 of P21333
GST-filamin A fragment F8 (repeat 24, 2517-2648 aa): residues 2517-2647 of P21333

Where two headings read alike, the source gives them in different places. Results are given in words; binding and its absence hold for the method and conditions named. For some assays here: Binding seen in cells or lysates may run through a third protein. Some entries that bind do so weakly or less than the wild type.

For one assay, the target named is GST-NudC (human) (UniProt Q9Y266). Description: pull-down; purified GST or GST-NudC incubated with RPE-1 cell lysates; immunoblotting with anti-filamin A antibody; only the target purified.
A further assay deals with Flag-NudC (human) (UniProt Q9Y266). Kind of assay: co-IP; RPE-1 cells transfected with a tagged protein; extracts in TBSN buffer (20 mM Tris pH 8.0, 150 mM NaCl, 0.5% NP-40, 5 mM EGTA, 1.5 mM EDTA); IP with anti-Flag or anti-Myc antibodies, western blotting of the endogenous partner.
For assay [1], the target named is GST-filamin A fragment F8 (repeat 24, 2517-2648 aa) (UniProt P21333). Description: pull-down; purified GST-tagged filamin A fragments incubated with purified His-NudC; immunoblotting; both purified.
The target of assay [2] is GST-filamin A fragment F7 (repeats 20-23, 2132-2516 aa) (UniProt P21333). Described as above.
For assay [3], the target named is Filamin A, endogenous in RPE-1 cells (human (endogenous in RPE-1)) (UniProt P21333). Kind of assay: co-IP; total lysates of untransfected cells (RPE-1) in TBSN buffer; IP of endogenous proteins with the indicated antibodies or IgG, western blotting.
A further assay addresses Myc-filamin A (UniProt P21333). Description: co-IP; RPE-1 cells transfected with a tagged protein; extracts in TBSN buffer (20 mM Tris pH 8.0, 150 mM NaCl, 0.5% NP-40, 5 mM EGTA, 1.5 mM EDTA); IP with anti-Flag or anti-Myc antibodies, western blotting of the endogenous partner.
The target in assay [4] is Filamin A, endogenous in RPE-1 cells (human (endogenous in RPE-1)) (UniProt P21333). Description: co-IP; total lysates of untransfected cells (RPE-1) in TBSN buffer; IP of endogenous proteins with the indicated antibodies or IgG, western blotting. This is another data set of the same source.

For the molecule “Filamin A, endogenous in RPE-1 cells (from UniProt P21333 1-2647)”, the binding result with GST-NudC (human) and with Flag-NudC (human) was “binds” in each case. Turning to His-NudC (from UniProt Q9Y266 1-331), the binding result in assay [1] and in assay [2] was “binds” throughout. “Nuclear distribution gene C (NudC), endogenous in RPE-1 cells (from UniProt Q9Y266 1-331)”: the binding result (in assay [3]; with Myc-filamin A) was “binds” throughout.

B1: NudC-like protein 2 (NudCL2), endogenous (protein, UniProt Q8WVJ2 1-157)
chain: MSAPFEERSGVVPCGTPWGQWYQTLEEVFIEVQVPPGTRAQDIQCGLQSRHVALSVGGREILKGKLFDSTIADEGTWTLEDRKMVRIVLTKTKRDAANCWTSLLESEYAADPWVQDQMQRKLTLERFQKENPGFDFSGAEISGNYTKGGPDFSNLEK
For the molecule B1, in assay [4], the binding entry is “binds”.

B2: NudC-like protein (NudCL), endogenous (protein, UniProt Q8IVD9 1-361)
chain: METGAAELYDQALLGILQHVGNVQDFLRVLFGFLYRKTDFYRLLRHPSDRMGFPPGAAQALVLQVFKTFDHMARQDDEKRRQELEEKIRRKEEEEAKTVSAAAAEKEPVPVPVQEIEIDSTTELDGHQEVEKVQPPGPVKEMAHGSQEAEAPGAVAGAAEVPREPPILPRIQEQFQKNPDSYNGAVRENYTWSQDYTDLEVRVPVPKHVVKGKQVSVALSSSSIRVAMLEENGERVLMEGKLTHKINTESSLWSLEPGKCVLVNLSKVGEYWWNAILEGEEPIDIDKINKERSMATVDEEEQAVLDRLTFDYHQKLQGKPQSHELKVHEMLKKGWDAEGSPFRGQRFDPAMFNISPGAVQF
Turning to B2, in assay [4], the binding result was “binds”.
